Data reported in PubChem BioAssay AID1794845 (National Center for Advancing Translational Sciences (NCATS), 2023).
Screen size: about 6,900 compounds; fewer than 10 were called active. Calls follow the shape of the dose curve; as a rule, active = well fitted curve in the direction sought with a large enough effect; inconclusive = small, poorly fitted or top-dose-only effect, or another doubt; inactive = no such curve, though single readings can be large or run the other way. This is one part of the list.
Also: % of control where 0% means no effect.

Chains of the proteins cited; added tags and fusions are not shown. Lines headed by an entry give the natural chain unless they say otherwise; changes in a name come on top.
UniProt C7C422: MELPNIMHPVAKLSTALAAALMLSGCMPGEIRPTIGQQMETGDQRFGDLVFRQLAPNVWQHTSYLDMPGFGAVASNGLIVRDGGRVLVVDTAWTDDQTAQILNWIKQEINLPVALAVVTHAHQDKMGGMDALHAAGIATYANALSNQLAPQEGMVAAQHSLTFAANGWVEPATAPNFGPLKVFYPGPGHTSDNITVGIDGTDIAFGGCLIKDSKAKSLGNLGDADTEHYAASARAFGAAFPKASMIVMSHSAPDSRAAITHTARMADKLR

Each compound was assayed against Metallo-beta-lactamase type 2 (Klebsiella pneumoniae) (UniProt C7C422) (assay: qHTS to identify inhibitors of the New Delhi Metallo-beta-lactamase (NDM): primary screen against the NCATS Gemini Collection). Details: NDM-1 enzyme, meropenem hydrolysis, absorbance 300 nm; at 38.4 µM (top of the series) unless noted.
How it was run: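 Meropenem hydrolysis (50 uM final) by 2 nM NDM-1 read as 300 nm absorbance after 30 min, following >30 min compound–enzyme preincubation in HEPES pH 7.0 with 1 uM ZnSO4 and 0.01% Tween20.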
For `O=C(Nc1ccccc1)N1CCCC(C(=O)N2CCC(N3CCOCC3=O)CC2)C1` (stereo not given), the activity % (negative = inhibition) was inactive: -1.48%.
With `COCCn1c(CN(C)Cc2sccc2C)cnc1S(=O)(=O)CC1CCCCC1` the activity % (negative = inhibition) was inactive: 24.9%.
With `Cc1cnc(C(=O)N2C[C@H]3OC(=O)N(CCc4cccc(Cl)c4)[C@H]3C2)[nH]1` the activity % (negative = inhibition) was inactive: -2.73%.
`O=C1CC(C(=O)O)C2(CCN(c3cc(C(=O)O)c4ccccc4n3)CC2)N1` (stereo not given) was tested, and the activity % (negative = inhibition) was inactive: -9.55%.
With `CC(C)c1noc(CC2CCN(C(=O)c3cc4ccccc4[nH]3)CC2)n1` the activity % (negative = inhibition) was inactive: 2%.
With `COc1ccccc1Nc1ncc2c(n1)CN(C(=O)c1cc3ccccc3n1C)CCN2` the activity % (negative = inhibition) was inactive: 46.4% [at 57.5 µM].
In the case of `Cc1cn2c(=O)cc(CN3CC[C@@](C)(O)[C@@H](O)C3)nc2s1`, the activity % (negative = inhibition) was inactive: 1.93%.
`CCCS(=O)(=O)N1C[C@@H](COC)[C@H](c2nc(C)no2)C1` was tested, and the activity % (negative = inhibition) was inactive: 19.5%.
`CC(=O)Nc1cccc(-c2n[nH]c3c2CC(=O)N(CCOc2ccccc2)C3)c1` was tested, and the activity % (negative = inhibition) was inactive: 5.04% [at 57.5 µM].
`O=c1n(CCN2CCCN([S+](=O)([O-])c3cccc(C(F)(F)F)c3)CC2)nc2n1CCCC2` was tested, and the activity % (negative = inhibition) was inactive: 1.72%.
In the case of `Cc1nn(C)c(C)c1CCC(=O)NCCc1ncc(C)n1C1CCCCC1`, the activity % (negative = inhibition) was inactive: 0.104%.
In the case of `CS(=O)(=O)N(C1CCOCC1)C1CN(S(=O)(=O)c2ccccc2)C1`, the activity % (negative = inhibition) was inactive: -4.48%.
For `Nc1nc(C2CC(NC(=O)c3[nH]nc(N)c3-c3ccccc3)C2)cc(=O)[nH]1` (stereo not given), the activity % (negative = inhibition) was inactive: 6.22%.
For `c1ccc(CN2CCNc3cnc(Nc4ccc(N5CCOCC5)cc4)cc3C2)cc1`, the activity % (negative = inhibition) was inactive: 14.9% [at 57.5 µM].
`COCCOCC1(CNC(=O)c2cccnc2)C[C@@H](O)[C@@H](O)C1` (stereo not given in full) was tested, and the activity % (negative = inhibition) was inactive: 63.5% [at 57.5 µM].
In the case of `Cc1cccc(C(=O)N2CC[C@H]3C(=O)NCCCCCCN(Cc4ccncc4)[C@@H]3C2)c1`, the activity % (negative = inhibition) was inactive: 1.14%.
In the case of `COC(=O)CNC(=O)N1CCC2(CC1)CC(c1ccccc1)CN(C)C2` (stereo not given), the activity % (negative = inhibition) was inactive: 13%.
With `CCn1cc(S(=O)(=O)N2CCCC2Cc2noc(-c3ccccc3)n2)cn1` (stereo not given) the activity % (negative = inhibition) was inactive: 11.3%.
In the case of `CN(Cc1cccnc1)C1CCCc2ccccc21` (stereo not given), the activity % (negative = inhibition) was inactive: 24.9% [at 57.5 µM].
`COC1CN(c2cccc(F)c2)C12CCN(S(=O)(=O)c1cccs1)CC2` (stereo not given) was tested, and the activity % (negative = inhibition) was inactive: -0.611%.
In the case of `Cc1ccn2c(C(=O)N3CCCC(c4[nH]ncc4-c4ccccc4)C3)nnc2n1` (stereo not given), the activity % (negative = inhibition) was inactive: 0.204%.
`CC(=O)N1CCC(c2nnc3n2C(C(=O)Nc2ccc(C)cc2)CC3)CC1` (stereo not given) was tested, and the activity % (negative = inhibition) was inactive: -2.15%.
For `NCC(=O)N1CCCC2(Cc3ccccc3CN2S(=O)(=O)c2ccccc2)C1` (stereo not given), the activity % (negative = inhibition) was inactive: -1.87%.
`CCNc1nc2c(s1)C(c1cccc(F)c1)CC(=O)N2` (stereo not given) was tested, and the activity % (negative = inhibition) was inactive: 0.957%.
For `CNC(=O)[C@@H]1CN(C(=O)c2ccc(OC)nc2OC)C[C@H]1c1n[nH]c(C)n1`, the activity % (negative = inhibition) was inactive: 0.858%.
With `O=C1NCCCCCN(C(=O)Cc2cccc(F)c2)[C@H]2CCC[C@@H]12` the activity % (negative = inhibition) was inactive: 61.2%.
For `CC(C)CC(=O)Nc1ccnn1C1CCN(C(=O)c2scc3c2CCCC3)CC1`, the activity % (negative = inhibition) was inactive: -1.41%.
`CCCCNC(=O)c1nnn2cc(-c3ccc(Cl)cc3)[nH]c(=O)c12` was tested, and the activity % (negative = inhibition) was inactive: 13.9%.
In the case of `O=C(c1ccc2cc[nH]c2c1)N1CCCC(Cc2noc(-c3ccccn3)n2)C1` (stereo not given), the activity % (negative = inhibition) was inactive: 31.3%.
`Cc1cnc(C2CC2)n1C1CCCN(Cc2ccccc2)C1` (stereo not given) was tested, and the activity % (negative = inhibition) was inactive: -3.04%.
In the case of `c1ccc(OCCCn2cc(-c3cncnc3)nn2)cc1`, the activity % (negative = inhibition) was inactive: 4.76%.
For `CC(C)Cc1cc(C(=O)NCC2CCN(c3cnn(C)c(=O)c3)C2)no1` (stereo not given), the activity % (negative = inhibition) was inactive: 26.2%.
With `CCC(CC)C(=O)N1CC[C@@H]2COCCN(Cc3cccnc3)[C@@H]2C1` the activity % (negative = inhibition) was inactive: 2.78%.
`CC(C)c1cc(C(=O)N[C@@H]2COCC[C@@H]2OCc2cscn2)cs1` was tested, and the activity % (negative = inhibition) was inactive: 51.4%.
With `Cc1ccc(C(=O)N2CC(CN3C(=O)c4c(c(C)nn4-c4ccccc4)C3C3CC3)C2)cc1` (stereo not given) the activity % (negative = inhibition) was inactive: 2.76%.
In the case of `Cn1c(Cn2cccn2)nnc1C1CC(NC(=O)c2sccc2N)C1` (stereo not given), the activity % (negative = inhibition) was inactive: 8.34%.
`NC(=O)[C@@H]1CN(Cc2ccccn2)C[C@H]1COc1ccccc1` was tested, and the activity % (negative = inhibition) was inactive: 0.444%.
With `Cc1ccc(NC(=O)N2CC(n3cc(C(=O)NCc4ccncc4)nn3)C2)cc1C` the activity % (negative = inhibition) was inactive: 67.1%.
In the case of `O=C1CO[C@H]2CN(Cc3ccc(C(F)(F)F)cc3)C[C@H]2N1`, the activity % (negative = inhibition) was inactive: -14.3% [at 57.5 µM].
`COCC(=O)N[C@H]1C[C@@H](CO)N(Cc2cccc(OC)c2)C1` was tested, and the activity % (negative = inhibition) was inactive: 13.7%.
`COCCNC(=O)[C@@H]1C[C@H](Oc2ccccc2)CN1C(=O)c1cnccn1` was tested, and the activity % (negative = inhibition) was inactive: 3.13%.
For `CS(=O)(=O)N(Cc1cccnc1)C1CN(C(=O)Nc2ccc3c(c2)OCCO3)C1`, the activity % (negative = inhibition) was inactive: -0.602%.
In the case of `CS(=O)(=O)N1C[C@@H](COc2ccccc2)[C@H](C(N)=O)C1`, the activity % (negative = inhibition) was inactive: 48.6%.
With `COc1ccc(-n2c(CCN)n[nH]c2=O)c(C)c1` the activity % (negative = inhibition) was inactive: 11.2%.
For `CC(=O)Nc1cccc(C(=O)N2CCC3(CC2)N=C(c2ccc(C)cc2)NO3)c1`, the activity % (negative = inhibition) was inactive: -0.961%.
In the case of `CN1CCCN(S(=O)(=O)c2cccs2)c2ccccc21`, the activity % (negative = inhibition) was inactive: -0.923%.
For `O=C(c1ccc(C(F)(F)F)cc1)N1CCCC(C(=O)N2CCC(c3nc4ccncc4[nH]3)CC2)C1` (stereo not given), the activity % (negative = inhibition) was inactive: 2.62%.
In the case of `O=C(c1ccccc1F)N1CCC(Cc2nc(-c3cnccn3)no2)CC1`, the activity % (negative = inhibition) was inactive: 14.9%.
`COc1cc(F)ccc1-c1nc(-c2c(C)noc2C)cc2cc(C)oc12` was tested, and the activity % (negative = inhibition) was inactive: 27.1% [at 57.5 µM].
`COC(=O)C[C@H]1CN(C(=O)OC(C)(C)C)CCN1` was tested, and the activity % (negative = inhibition) was inactive: 4.12% [at 57.5 µM].
For `CC(=O)N[C@H]1C[C@@H](c2cc(C)c(C)cc2C)O[C@@H](C(C)(C)C)C1`, the activity % (negative = inhibition) was inactive: -0.667%.
`CN1CCC(C(=O)N2CCC(n3c(=O)[nH]c4ccccc43)CC2)CC1` was tested, and the activity % (negative = inhibition) was inactive: -0.148%.
`O=C(Cn1ncc2ccccc2c1=O)N1CCCCC1CCn1cccn1` (stereo not given) was tested, and the activity % (negative = inhibition) was inactive: 3.55%.
In the case of `COCCn1c2c(c(=O)n1-c1ccccc1)CCN(Cc1cccc(C#N)c1)C2`, the activity % (negative = inhibition) was inactive: 1.1% [at 57.5 µM].
`COCC1CN(C2CCC2)CC12CCN(S(=O)(=O)c1cnc[nH]1)CC2` (stereo not given) was tested, and the activity % (negative = inhibition) was inactive: -13.9%.
With `Cc1ccc(S(=O)(=O)N2CCc3nc4cc[nH]n4c(=O)c3C2)cc1C` the activity % (negative = inhibition) was inactive: 1.93%.
In the case of `CCOC(=O)C1CCN(C(=O)c2ccc3oc(-c4cccnc4)nc3c2)CC1`, the activity % (negative = inhibition) was inactive: 26%.
For `CCCN1CC2(CCN(Cc3nc(CCOC)no3)CC2)CC1C(=O)O` (stereo not given), the activity % (negative = inhibition) was inactive: 11.1%.
For `O=C(Nc1cc(-c2ccncc2)nn1-c1ccccc1)c1ccc(Cl)cc1`, the activity % (negative = inhibition) was inactive: 14.3%.
For `Nc1nc(CCC(=O)N[C@@H]2[C@@H](Cc3ccccc3)[C@H]3OCC[C@@H]23)cs1`, the activity % (negative = inhibition) was inactive: -5.81%.
For `CN1CCN(C(=O)N2CCC3(CCCN(C4CCCC4)C3=O)C2)CC1` (stereo not given), the activity % (negative = inhibition) was inactive: 2.27%.
With `C[C@@H]1CN(C(=O)c2cccc(N3CCNC3=O)c2)C[C@@]1(O)C1CC1` the activity % (negative = inhibition) was inactive: 16.8%.
For `Cc1noc(C)c1CC(=O)N1CCCn2ccnc2C1c1ccccc1` (stereo not given), the activity % (negative = inhibition) was inactive: 24.4%.
With `COC[C@@H]1CN(Cc2cnn(C(C)C)c2)C[C@H]1C(=O)NC1CC1` the activity % (negative = inhibition) was inactive: -1.59%.
In the case of `COc1ccc(-c2nc3c(c(=O)[nH]2)CCN(C(=O)Nc2ccccc2Cl)C3)cc1`, the activity % (negative = inhibition) was inactive: 4.22%.
In the case of `O=C1NCCOCCCN(S(=O)(=O)c2cccs2)[C@H]2CCCC[C@@H]12`, the activity % (negative = inhibition) was inactive: 0.676%.
`COCC(=O)NC[C@H]1CCN(Cc2ccccn2)C[C@H]1N(C)C` was tested, and the activity % (negative = inhibition) was inactive: 7.78%.
For `CCCNC(=O)N1CCCC(c2nc(CCOc3ccc(F)cc3)no2)C1` (stereo not given), the activity % (negative = inhibition) was inactive: 13.6%.
With `CC(=O)N1CC2(CCCN2Cc2cccc(C(N)=O)c2)Cc2ccccc21` (stereo not given) the activity % (negative = inhibition) was inactive: 15.2%.
In the case of `COc1ccc(CNC(=O)C[C@@H]2C[C@H]3O[C@H](CNC4CCCC4)[C@@H](O)[C@H]3O2)cc1`, the activity % (negative = inhibition) was inactive: -1.67% [at 57.5 µM].
With `COC(=O)CNC(=O)NCCc1ncc(C)n1C1CCCC1` the activity % (negative = inhibition) was inactive: -2.91%.
For `COc1ccccc1N1CCN(CC[C@H]2CN(C(=O)NC3CCCCC3)CC[C@H]2CC(=O)O)CC1`, the activity % (negative = inhibition) was inactive: -2.13%.
In the case of `CN1CC(=O)N(C2CCNCC2)Cc2c(NCCCO)ncnc21`, the activity % (negative = inhibition) was inactive: 4.04%.
With `CCOc1ccccc1CN1CCN(Cc2nccn2CC)CC1CCO` (stereo not given) the activity % (negative = inhibition) was inactive: -1.34%.
For `CC1=C[C@@H](CNC(=O)C(C)(C)C)[C@H](C(C)C)C[C@H]1Cc1nnc(-c2ccncc2)o1`, the activity % (negative = inhibition) was inactive: -12.9% [at 57.5 µM].
In the case of `O=C(C1CN(C2CCCC2)C(=O)N1)N1CCN(c2ncccn2)CC1` (stereo not given), the activity % (negative = inhibition) was inactive: 6.52%.
With `CCOC(=O)C1CCN(C(=O)c2ccc3nccn3c2)CC1` the activity % (negative = inhibition) was inactive: 16.6% [at 57.5 µM].
With `CC(=O)N(C1CC1)C1CCOC2(CCN(C(=O)Cn3c(=O)oc4ccccc43)CC2)C1` (stereo not given) the activity % (negative = inhibition) was inactive: 11.5%.
In the case of `COCCNC(=O)[C@H]1C[C@H](Oc2ccccc2)CN1Cc1ccncc1`, the activity % (negative = inhibition) was inactive: 0.46%.
In the case of `CCn1c(CN(C)C)nnc1C1CCN(C(=O)Cn2nc(C)cc2N)CC1`, the activity % (negative = inhibition) was inactive: 0.734%.
`OC1(c2csc(CN3CCOCC3)n2)CCN(Cc2ccc(F)cc2)CC1` was tested, and the activity % (negative = inhibition) was inactive: 9.97% [at 57.5 µM].
`COCCNC(=O)C1COC2(CCN(C(=O)C3CC3)CC2)N1C(=O)c1cccc(OC)c1` (stereo not given) was tested, and the activity % (negative = inhibition) was inactive: -3.04%.
For `Cn1cc(CN2C[C@@H]3C[C@H](C2)c2ccc(NS(=O)(=O)c4cccc(F)c4)c(=O)n2C3)c2ccccc21`, the activity % (negative = inhibition) was inactive: 83.7%.
With `COc1cccc(-c2ccccc2NC(=O)C2CCN(CC=C(C)C)CC2)c1` the activity % (negative = inhibition) was inactive: 0.918%.
In the case of `CN(C)[C@@H]1CN(Cc2ccc(C#N)cc2)C[C@H]1CO`, the activity % (negative = inhibition) was inactive: -0.958%.
